Taken from: PubChem BioAssay AID1259281 (Sanger Institute, 2017)
The deposit covers 794 reagents; this is an unselected part. 22 of them (2.8%) were called active. 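Calls rest on knock-down alone only; drug synergy scores play no part in them.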 Viability is capped at 1. The record does not give: the amount of reagent, the time to read-out.

Test: 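Identify essential genes and drug-enhancing knock-downs among kinases and common colorectal mutated genes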 (primary screen)
Cells: human COLO678 colorectal cancer cell line
Reagent: siRNA pool against human genes
Challenge: anchor drugs at fixed doses: BYL719 1 µM, cetuximab 5 µg/ml or trametinib 10 nM; DMSO vehicle for the siRNA-alone arm
Detection: 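Cell viability compared with non-targeting pool wells, averaged over replicates; knock-down-alone effect also as robust z-score; synergy scores set knock-down plus drug against expected joint effect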
Direction: robust z-score, siRNA alone: higher = more viable cells; strongly negative means essential; viability, siRNA alone: higher = more surviving cells; synergy score with BYL719 and synergy score with trametinib and synergy score with cetuximab: higher = stronger synergistic killing with drug
Active means: 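Essential (knock-down alone) when the siRNA-alone robust z-score is below -3; otherwise no change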
Calls: active = essential (knock-down alone); inactive = no change

| Gene | robust z-score, siRNA alone | viability, siRNA alone (fraction of control) | synergy score with BYL719 | synergy score with trametinib | synergy score with cetuximab | Call |
| --- | --- | --- | --- | --- | --- | --- |
| PIK3CD | -3.22 | 0.883 | -0.106 | -0.0606 | -0.0761 | active |
| CSNK1G3 (casein kinase 1 gamma 3) | 0.473 | 1 | 0.106 | -0.00762 | 0.0144 | inactive |
| MAGI3 | 0.473 | 1 | -0.0919 | -0.0305 | -0.0191 | inactive |
| NME4 (NME/NM23 nucleoside diphosphate kinase 4) | 0.473 | 1 | -0.00547 | 0.0409 | -0.0681 | inactive |
| POMK (protein O-mannose kinase) | 0.473 | 1 | 0.0345 | 0.0359 | -0.0681 | inactive |
| SRPK3 (SRSF protein kinase 3) | 0.473 | 1 | -0.0919 | -0.0248 | -0.0681 | inactive |
| DAPK1 (death associated protein kinase 1) | 0.331 | 0.995 | 0.0475 | 0.0833 | -0.01 | inactive |
| ADCK2 (aarF domain containing kinase 2) | 0.106 | 0.988 | 0.0823 | 0.0322 | 0.0442 | inactive |
| PTK2B (protein tyrosine kinase 2 beta) | 0.473 | 1 | -0.0919 | 0.0851 | 0.0852 | inactive |
| VRK1 (VRK serine/threonine kinase 1) | 0.473 | 1 | -0.0351 | 0.0135 | -0.0442 | inactive |
| PAK1 (p21 (RAC1) activated kinase 1) | 0.473 | 1 | 0.211 | -0.0593 | -0.00581 | inactive |
| CAMK2N1 (calcium/calmodulin dependent protein kinase II inhibitor 1) | 0.473 | 1 | 0.213 | -0.0241 | 0.056 | inactive |

Records listed above with an active call:
| Gene | robust z-score, siRNA alone | viability, siRNA alone (fraction of control) | synergy score with BYL719 | synergy score with trametinib | synergy score with cetuximab | Call |
| --- | --- | --- | --- | --- | --- | --- |
| PIK3CD | -3.22 | 0.883 | -0.106 | -0.0606 | -0.0761 | active |

The listing continues.
| Gene | robust z-score, siRNA alone | viability, siRNA alone (fraction of control) | synergy score with BYL719 | synergy score with trametinib | synergy score with cetuximab | Call |
| --- | --- | --- | --- | --- | --- | --- |
| FLT4 (fms related receptor tyrosine kinase 4) | 0.473 | 1 | -0.0919 | -0.0422 | -0.0681 | inactive |
| FLT1 (fms related receptor tyrosine kinase 1) | 0.473 | 1 | 0.0448 | -0.00851 | -0.0681 | inactive |
| EXOSC10 (exosome component 10) | -0.861 | 0.958 | -0.0545 | 0.0757 | 0.00727 | inactive |
| FGFR4 (fibroblast growth factor receptor 4) | 0.473 | 1 | -0.0884 | -0.062 | -0.0602 | inactive |
| MAPK15 (mitogen-activated protein kinase 15) | 0.473 | 1 | -0.0919 | -0.0179 | 0.0492 | inactive |
| LATS2 (large tumor suppressor kinase 2) | 0.473 | 1 | -0.0919 | -0.00818 | -0.0681 | inactive |
| PRKACB (protein kinase cAMP-activated catalytic subunit beta) | 0.473 | 1 | 0.0989 | -0.0405 | 0.144 | inactive |
| PFKL (phosphofructokinase, liver type) | 0.473 | 1 | -0.0919 | 0.0398 | 0.0367 | inactive |
